Experimental data published in US8410157B2, “Fungicidal N-cycloalkyl-benzyl-thiocarboxamides or N-cycloalkyl-benzyl-N′-substituted-amidine derivatives” (Bayer Cropscience AG, priority 2007, dated 2013).
Some results were stated once for a whole list of compounds, not compound by compound. At least one structure is not confirmed: it was looked up by name or label, or the drawing left a doubt.

Tests used:
[1] = system: Pyrenophora teres; experiment: In vivo test on Pyrenophora teres (barley net blotch); details: dose of 500 ppm; barley plants sprayed 24 hours before contamination; grading 12 days after the contamination, in comparison with the control plants
[2] = system: Sphaerotheca fuliginea; experiment: In vivo test on Sphaerotheca fuliginea (cucurbit powdery mildew); details: dose of 500 ppm; gherkin plants sprayed 24 hours before contamination; grading (% of efficacy) 21 days after the contamination, in comparison with the control plants
[3] = system: Mycosphaerella graminicola; experiment: In vivo test on Mycosphaerella graminicola (wheat leaf spot); details: dose of 500 ppm; wheat plants sprayed 24 hours before contamination; grading (% of efficacy) 21 to 28 days after the contamination, in comparison with the control plants
[4] = system: Puccinia recondita f. Sp. tritici; experiment: In vivo test on Puccinia recondita f. Sp. tritici (wheat brown rust); details: dose of 500 ppm; wheat plants sprayed 24 hours before contamination; grading 10 days after the contamination, in comparison with the control plants
[5] = system: Alternaria brassicae; experiment: In vivo test on Alternaria brassicae (leaf spot of crucifers); details: dose of 500 ppm; radish plants sprayed 24 hours before contamination; grading 6 to 7 days after the contamination, in comparison with the control plants

CCCC(c1ccc(Cl)cc1Cl)N(C(=S)c1c(C)nn(C)c1F)C1CC1 (racemic) [Compound 10]
at least 70%: good (at least 70%) or total protection [1] | good (at least 70%) or total protection [2] | good (at least 70%) or total protection [3]

Cc1nn(C)c(F)c1C(=S)N(C1CC1)C(C)c1ccc(Cl)cc1Cl (racemic) [Compound 15]
at least 70%: good (at least 70%) or total protection [1] | good (at least 70%) or total protection [2]

Cc1nn(C)c(F)c1C(=S)N(C1CC1)C(C)c1cccc(OCc2ccccc2)c1 (racemic) [Compound 17]
at least 70%: good (at least 70%) or total protection [1] | good (at least 70%) or total protection [2] | good (at least 70%) or total protection [3] | good (at least 70%) or total protection [4]

Cc1nn(C)c(F)c1C(=S)N(C1CC1)C(C)c1cc(Cl)ccc1Cl (racemic) [Compound 19]
at least 70%: good protection (at least 70%) [5] | good (at least 70%) or total protection [1] | good (at least 70%) or total protection [2] | good (at least 70%) or total protection [3]

Cn1cc(C(=S)N(Cc2ccccc2I)C2CC2(C)C)c(C(F)F)n1 (racemic) [Compound 41]
at least 70%: good (at least 70%) or total protection [3]

Cn1cc(C(=S)N(Cc2cc(Cl)ccc2C(F)(F)F)C2CC2(C)C)c(C(F)F)n1 (racemic) [Compound 43]
at least 70%: good protection (at least 70%) [5] | good (at least 70%) or total protection [1] | good (at least 70%) or total protection [2] | good (at least 70%) or total protection [3]

CCCc1nn(C)cc1C(=S)N(C1CC1)C(C)c1ccc(Cl)cc1Cl (racemic) [Compound 56]
at least 70%: good (at least 70%) or total protection [2] | good (at least 70%) or total protection [3]

Cc1nn(C)c(F)c1C(=S)N(Cc1ccc(Oc2ccc(Cl)cc2)cc1)C1CC1 [Compound 1]
at least 70%: good protection (at least 70%) [5] | good (at least 70%) or total protection [1] | good (at least 70%) or total protection [3]

Cc1nn(C)c(F)c1C(=S)N(Cc1ccc(-c2ccc(F)c(Cl)c2)cc1F)C1CC1 [Compound 2]
at least 70%: good (at least 70%) or total protection [1] | good (at least 70%) or total protection [3]

Cc1nn(C)c(F)c1C(=S)N(Cc1cccc(C(F)(F)F)c1Cl)C1CC1 [Compound 3]
at least 70%: good protection (at least 70%) [5] | good (at least 70%) or total protection [1] | good (at least 70%) or total protection [2] | good (at least 70%) or total protection [4]

CCc1cccc(CC)c1CN(C(=S)c1c(C)nn(C)c1F)C1CC1 [Compound 4]
at least 70%: good protection (at least 70%) [5] | good (at least 70%) or total protection [1] | good (at least 70%) or total protection [2] | good (at least 70%) or total protection [3] | good (at least 70%) or total protection [4]

Cc1nn(C)c(F)c1C(=S)N(Cc1ccc(Oc2ccccc2)cc1)C1CC1 [Compound 5]
at least 70%: good protection (at least 70%) [5] | good (at least 70%) or total protection [1] | good (at least 70%) or total protection [2] | good (at least 70%) or total protection [4]

Cc1nn(C)c(F)c1C(=S)N(Cc1c(Cl)cc(Cl)cc1Cl)C1CC1 [Compound 6]
at least 70%: good protection (at least 70%) [5] | good (at least 70%) or total protection [1] | good (at least 70%) or total protection [2] | good (at least 70%) or total protection [3] | good (at least 70%) or total protection [4]

Cc1nn(C)c(F)c1C(=S)N(Cc1ccccc1[Si](C)(C)C)C1CC1 [Compound 7]
at least 70%: good protection (at least 70%) [5] | good (at least 70%) or total protection [1] | good (at least 70%) or total protection [3] | good (at least 70%) or total protection [4]

Cc1nn(C)c(F)c1C(=S)N(Cc1ccc(C(F)(F)F)cc1Cl)C1CC1 [Compound 8]
at least 70%: good protection (at least 70%) [5] | good (at least 70%) or total protection [1] | good (at least 70%) or total protection [2] | good (at least 70%) or total protection [4]

Cc1nn(C)c(F)c1C(=S)N(Cc1cc(C(F)(F)F)ccc1Cl)C1CC1 [Compound 9]
at least 70%: good protection (at least 70%) [5] | good (at least 70%) or total protection [1] | good (at least 70%) or total protection [2] | good (at least 70%) or total protection [4]

Cc1nn(C)c(F)c1C(=S)N(Cc1ccccc1C1CCCCC1)C1CC1 [Compound 11]
at least 70%: good (at least 70%) or total protection [3]

Cc1nn(C)c(F)c1C(=S)N(Cc1ccccc1I)C1CC1 [Compound 12]
at least 70%: good protection (at least 70%) [5] | good (at least 70%) or total protection [1] | good (at least 70%) or total protection [3] | good (at least 70%) or total protection [4]

Cc1nn(C)c(F)c1C(=S)N(Cc1ccccc1C(C)C)C1CC1 [Compound 14]
at least 70%: good protection (at least 70%) [5] | good (at least 70%) or total protection [1] | good (at least 70%) or total protection [2] | good (at least 70%) or total protection [3] | good (at least 70%) or total protection [4]

Cc1nn(C)c(F)c1C(=S)N(Cc1ccc(Oc2ccc(Cl)cc2Cl)cc1)C1CC1 [Compound 18]
at least 70%: good protection (at least 70%) [5] | good (at least 70%) or total protection [1] | good (at least 70%) or total protection [2]

Cc1nn(C)c(F)c1C(=S)N(Cc1cc(Cl)ccc1C(F)(F)F)C1CC1 [Compound 27]
at least 70%: good protection (at least 70%) [5] | good (at least 70%) or total protection [1] | good (at least 70%) or total protection [3] | good (at least 70%) or total protection [4]

CCc1nn(C)c(F)c1C(=S)N(Cc1ccc(C(F)(F)F)cc1Cl)C1CC1 [Compound 28]
at least 70%: good (at least 70%) or total protection [1] | good (at least 70%) or total protection [2] | good (at least 70%) or total protection [3]

Cn1cc(C(=S)N(Cc2ccccc2Br)C2CC2)c(C(F)F)n1 [Compound 31]
at least 70%: good protection (at least 70%) [5] | good (at least 70%) or total protection [1] | good (at least 70%) or total protection [2] | good (at least 70%) or total protection [3]

Cn1cc(C(=S)N(Cc2cccc(OCc3ccccc3)c2)C2CC2)c(C(F)F)n1 [Compound 33]
at least 70%: good protection (at least 70%) [5] | good (at least 70%) or total protection [1] | good (at least 70%) or total protection [2]

Cn1cc(C(=S)N(Cc2ccc(C(F)(F)F)cc2Cl)C2CC2)c(C(F)F)n1 [Compound 35]
at least 70%: good protection (at least 70%) [5] | good (at least 70%) or total protection [1] | good (at least 70%) or total protection [2]

Cn1cc(C(=S)N(Cc2ccccc2[Si](C)(C)C)C2CC2)c(C(F)F)n1 [Compound 37]
at least 70%: good protection (at least 70%) [5] | good (at least 70%) or total protection [1] | good (at least 70%) or total protection [2] | good (at least 70%) or total protection [4]

Cn1cc(C(=S)N(Cc2ccccc2)C2CC2)c(C(F)F)n1 [Compound 38]
at least 70%: good (at least 70%) or total protection [1] | good (at least 70%) or total protection [2] | good (at least 70%) or total protection [4]

Cn1cc(C(=S)N(Cc2ccc(Cl)cc2Cl)C2CC2)c(C(F)F)n1 [Compound 39]
at least 70%: good (at least 70%) or total protection [1] | good (at least 70%) or total protection [2] | good (at least 70%) or total protection [3]

Cn1cc(C(=S)N(Cc2cc3c(cc2Cl)OCO3)C2CC2)c(C(F)(F)F)c1 [Compound 44]
at least 70%: good (at least 70%) or total protection [1] | good (at least 70%) or total protection [3]

Cn1cc(C(=S)N(Cc2c(Cl)cc(OC(F)(F)F)cc2Cl)C2CC2)c(C(F)(F)F)n1 [Compound 45]
at least 70%: good (at least 70%) or total protection [2]

Cn1nc(C(=S)N(Cc2c(Cl)cccc2C(F)(F)F)C2CC2)c(C(F)(F)F)n1 [Compound 46]
at least 70%: good (at least 70%) or total protection [1] | good (at least 70%) or total protection [2] | good (at least 70%) or total protection [3]

Cn1nc(C(=S)N(Cc2cc(Cl)ccc2C(F)(F)F)C2CC2)c(C(F)(F)F)n1 [Compound 47]
at least 70%: good (at least 70%) or total protection [2]

Cn1nc(C(=S)N(Cc2ccc(Cl)cc2Cl)C2CC2)c(C(F)(F)F)n1 [Compound 48]
at least 70%: good (at least 70%) or total protection [2]

Cn1cc(C(=S)N(Cc2c(Cl)cccc2C(F)(F)F)C2CC2)c(Cl)n1 [Compound 50]
at least 70%: good protection (at least 70%) [5] | good (at least 70%) or total protection [1] | good (at least 70%) or total protection [2] | good (at least 70%) or total protection [4]

Cn1cc(C(=S)N(Cc2ccccc2I)C2CC2)c(Cl)n1 [Compound 51]
at least 70%: good (at least 70%) or total protection [1] | good (at least 70%) or total protection [2] | good (at least 70%) or total protection [4]

Cn1cc(C(=S)N(Cc2c(Cl)cc(Cl)cc2Cl)C2CC2)c(Cl)n1 [Compound 52]
at least 70%: good (at least 70%) or total protection [1] | good (at least 70%) or total protection [2] | good (at least 70%) or total protection [4]

CCc1nn(C)cc1C(=S)N(Cc1ccccc1I)C1CC1 [Compound 53]
at least 70%: good (at least 70%) or total protection [1] | good (at least 70%) or total protection [2] | good (at least 70%) or total protection [3]

Cn1cc(C(=S)N(Cc2c(Cl)cccc2Cl)C2CC2)c(I)n1 [Compound 55]
at least 70%: good (at least 70%) or total protection [1] | good (at least 70%) or total protection [2] | good (at least 70%) or total protection [3]
